Measurements from PMC4032329.
Results are given in words; binding and its absence hold for the method and conditions named. In cells and extracts the contact can be indirect. Some binding calls cover weakened binding; strength is not graded here. Tags and fused reporters may be left off the sequences shown.

Chains of the proteins cited; added tags and fusions are not shown.
UniProt Q96EB6: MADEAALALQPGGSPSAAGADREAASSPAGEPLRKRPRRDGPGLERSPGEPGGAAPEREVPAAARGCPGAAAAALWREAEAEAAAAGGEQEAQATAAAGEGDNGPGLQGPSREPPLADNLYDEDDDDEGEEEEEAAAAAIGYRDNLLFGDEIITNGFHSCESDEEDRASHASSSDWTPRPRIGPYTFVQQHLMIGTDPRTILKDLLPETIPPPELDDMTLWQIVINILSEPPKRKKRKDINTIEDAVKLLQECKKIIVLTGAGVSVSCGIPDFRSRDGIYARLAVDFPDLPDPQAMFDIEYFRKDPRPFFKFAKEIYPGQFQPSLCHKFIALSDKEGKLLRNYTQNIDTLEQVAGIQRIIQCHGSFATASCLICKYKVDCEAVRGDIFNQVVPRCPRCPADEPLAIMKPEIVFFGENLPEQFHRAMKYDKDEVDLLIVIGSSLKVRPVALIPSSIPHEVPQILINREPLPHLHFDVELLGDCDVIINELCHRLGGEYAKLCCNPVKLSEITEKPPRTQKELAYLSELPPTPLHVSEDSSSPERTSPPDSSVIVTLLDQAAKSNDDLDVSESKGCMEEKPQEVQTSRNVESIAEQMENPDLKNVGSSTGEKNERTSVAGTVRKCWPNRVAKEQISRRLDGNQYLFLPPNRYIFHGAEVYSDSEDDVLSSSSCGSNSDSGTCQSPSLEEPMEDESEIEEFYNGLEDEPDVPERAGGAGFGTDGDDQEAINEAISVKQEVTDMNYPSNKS

What follows are binders tested against Myc-tagged SIRT1 (UniProt Q96EB6) (assay: co-IP; HEK293 cells co-transfected with Myc-tagged SIRT1 and HA-tagged NFAT (or full-length or truncated NFATc3); lysate in IP buffer (50 mM Tris pH 8.0, 150 mM NaCl), specific antibodies and protein A- or G-agarose, western blotting).

binding	Binder
binds	HA-tagged NFATc3 (1-407AA) (domain or fragment, UniProt Q12968 1-407) MTTANCGAHDELDFKLVFGEDGAPAPPPPGSRPADLEPDDCASIYIFNVDPPPSTLTTPLCLPHHGLPSHSSVLSPSFQLQSHKNYEGTCEIPESKYSPLGGPKPFECPSIQITSISPNCHQELDAHEDDLQINDPEREFLERPSRDHLYLPLEPSYRESSLSPSPASSISSRSWFSDASSCESLSHIYDDVDSELNEAAARFTLGSPLTSPGGSPGGCPGEETWHQQYGLGHSLSPRQSPCHSPRSSVTDENWLSPRPASGPSSRPTSPCGKRRHSSAEVCYAGSLSPHHSPVPSPGHSPRGSVTEDTWLNASVHGGSGLGPAVFPFQYCVETDIPLKTRKTSEDQAAILPGKLELCSDDQGSLSPARETSIDDGLGSQYPLKKDSCGDQFLSVPSPFTWSKPKPG
binds	HA-tagged full-length NFATc3 (protein, UniProt Q12968 1-1075) MTTANCGAHDELDFKLVFGEDGAPAPPPPGSRPADLEPDDCASIYIFNVDPPPSTLTTPLCLPHHGLPSHSSVLSPSFQLQSHKNYEGTCEIPESKYSPLGGPKPFECPSIQITSISPNCHQELDAHEDDLQINDPEREFLERPSRDHLYLPLEPSYRESSLSPSPASSISSRSWFSDASSCESLSHIYDDVDSELNEAAARFTLGSPLTSPGGSPGGCPGEETWHQQYGLGHSLSPRQSPCHSPRSSVTDENWLSPRPASGPSSRPTSPCGKRRHSSAEVCYAGSLSPHHSPVPSPGHSPRGSVTEDTWLNASVHGGSGLGPAVFPFQYCVETDIPLKTRKTSEDQAAILPGKLELCSDDQGSLSPARETSIDDGLGSQYPLKKDSCGDQFLSVPSPFTWSKPKPGHTPIFRTSSLPPLDWPLPAHFGQCELKIEVQPKTHHRAHYETEGSRGAVKASTGGHPVVKLLGYNEKPINLQMFIGTADDRYLRPHAFYQVHRITGKTVATASQEIIIASTKVLEIPLLPENNMSASIDCAGILKLRNSDIELRKGETDIGRKNTRVRLVFRVHIPQPSGKVLSLQIASIPVECSQRSAQELPHIEKYSINSCSVNGGHEMVVTGSNFLPESKIIFLEKGQDGRPQWEVEGKIIREKCQGAHIVLEVPPYHNPAVTAAVQVHFYLCNGKRKKSQSQRFTYTPVLMKQEHREEIDLSSVPSLPVPHPAQTQRPSSDSGCSHDSVLSGQRSLICSIPQTYASMVTSSHLPQLQCRDESVSKEQHMIPSPIVHQPFQVTPTPPVGSSYQPMQTNVVYNGPTCLPINAASSQEFDSVLFQQDATLSGLVNLGCQPLSSIPFHSSNSGSTGHLLAHTPHSVHTLPHLQSMGYHCSNTGQRSLSSPVADQITGQPSSQLQPITYGPSHSGSATTASPAASHPLASSPLSGPPSPQLQPMPYQSPSSGTASSPSPATRMHSGQHSTQAQSTGQGGLSAPSSLICHSLCDPASFPPDGATVSIKPEPEDREPNFATIGLQDITLDDVNEIIGRDMSQISVSQGAGVSRQAPLPSPESLDLGRSDGL
binds	HA-tagged NFATc3 (408-674AA) (domain or fragment, UniProt Q12968 408-674) HTPIFRTSSLPPLDWPLPAHFGQCELKIEVQPKTHHRAHYETEGSRGAVKASTGGHPVVKLLGYNEKPINLQMFIGTADDRYLRPHAFYQVHRITGKTVATASQEIIIASTKVLEIPLLPENNMSASIDCAGILKLRNSDIELRKGETDIGRKNTRVRLVFRVHIPQPSGKVLSLQIASIPVECSQRSAQELPHIEKYSINSCSVNGGHEMVVTGSNFLPESKIIFLEKGQDGRPQWEVEGKIIREKCQGAHIVLEVPPYHNPAVTA
